Data reported in the supplement of paper PMC12819154, “High-throughput peptide-centric local stability assay extends protein–ligand identification to membrane proteins, tissues and bacteria” (Nature Structural & Molecular Biology, 2025).
Some of the results follow. Small differences around the control level are noise.

Sequences of proteins named here, by UniProt entry; tags and fusion partners are left off. A change or cut given only in a name is not applied to a line headed by its entry.
UniProt Q9Y4U1: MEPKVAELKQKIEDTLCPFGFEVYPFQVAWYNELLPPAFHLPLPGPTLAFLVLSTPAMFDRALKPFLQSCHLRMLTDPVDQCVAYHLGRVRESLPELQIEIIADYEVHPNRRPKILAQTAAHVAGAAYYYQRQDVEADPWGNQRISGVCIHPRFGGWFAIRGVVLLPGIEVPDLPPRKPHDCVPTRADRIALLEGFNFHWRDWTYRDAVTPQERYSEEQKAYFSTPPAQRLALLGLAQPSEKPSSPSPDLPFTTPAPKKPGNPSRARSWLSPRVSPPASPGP
UniProt Q9Y680: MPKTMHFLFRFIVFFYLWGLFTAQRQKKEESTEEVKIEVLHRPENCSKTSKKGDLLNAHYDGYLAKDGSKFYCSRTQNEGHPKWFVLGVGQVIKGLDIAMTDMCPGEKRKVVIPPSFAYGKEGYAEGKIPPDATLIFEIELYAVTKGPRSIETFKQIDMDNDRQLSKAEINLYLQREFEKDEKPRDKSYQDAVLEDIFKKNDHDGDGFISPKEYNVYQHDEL
UniProt Q9Y5J9: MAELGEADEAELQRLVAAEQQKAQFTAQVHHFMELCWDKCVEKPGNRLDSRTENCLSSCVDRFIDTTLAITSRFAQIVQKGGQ
UniProt Q9Y5Q9: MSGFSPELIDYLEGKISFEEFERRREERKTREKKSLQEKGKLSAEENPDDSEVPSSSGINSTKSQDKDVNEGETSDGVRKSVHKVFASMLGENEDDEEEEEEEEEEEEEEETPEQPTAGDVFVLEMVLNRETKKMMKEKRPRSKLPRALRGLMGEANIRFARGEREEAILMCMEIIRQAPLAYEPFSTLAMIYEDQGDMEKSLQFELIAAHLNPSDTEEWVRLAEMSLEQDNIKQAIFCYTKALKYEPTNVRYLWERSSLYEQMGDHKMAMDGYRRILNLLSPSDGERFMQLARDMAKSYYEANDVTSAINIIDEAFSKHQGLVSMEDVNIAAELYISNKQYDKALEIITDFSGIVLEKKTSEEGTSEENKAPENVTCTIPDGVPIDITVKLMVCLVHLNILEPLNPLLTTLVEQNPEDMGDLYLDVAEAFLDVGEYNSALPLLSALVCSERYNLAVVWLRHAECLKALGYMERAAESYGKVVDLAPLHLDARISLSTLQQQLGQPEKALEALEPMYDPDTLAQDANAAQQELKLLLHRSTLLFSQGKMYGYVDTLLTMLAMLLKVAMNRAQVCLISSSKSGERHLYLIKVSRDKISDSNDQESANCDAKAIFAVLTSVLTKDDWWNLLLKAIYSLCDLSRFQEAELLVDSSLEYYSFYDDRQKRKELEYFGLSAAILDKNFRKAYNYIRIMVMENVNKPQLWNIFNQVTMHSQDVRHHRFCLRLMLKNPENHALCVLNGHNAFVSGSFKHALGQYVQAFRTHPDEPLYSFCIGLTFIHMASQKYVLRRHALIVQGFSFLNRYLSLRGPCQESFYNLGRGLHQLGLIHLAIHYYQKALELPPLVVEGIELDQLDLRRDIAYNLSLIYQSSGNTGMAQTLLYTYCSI
UniProt Q9Y6X6: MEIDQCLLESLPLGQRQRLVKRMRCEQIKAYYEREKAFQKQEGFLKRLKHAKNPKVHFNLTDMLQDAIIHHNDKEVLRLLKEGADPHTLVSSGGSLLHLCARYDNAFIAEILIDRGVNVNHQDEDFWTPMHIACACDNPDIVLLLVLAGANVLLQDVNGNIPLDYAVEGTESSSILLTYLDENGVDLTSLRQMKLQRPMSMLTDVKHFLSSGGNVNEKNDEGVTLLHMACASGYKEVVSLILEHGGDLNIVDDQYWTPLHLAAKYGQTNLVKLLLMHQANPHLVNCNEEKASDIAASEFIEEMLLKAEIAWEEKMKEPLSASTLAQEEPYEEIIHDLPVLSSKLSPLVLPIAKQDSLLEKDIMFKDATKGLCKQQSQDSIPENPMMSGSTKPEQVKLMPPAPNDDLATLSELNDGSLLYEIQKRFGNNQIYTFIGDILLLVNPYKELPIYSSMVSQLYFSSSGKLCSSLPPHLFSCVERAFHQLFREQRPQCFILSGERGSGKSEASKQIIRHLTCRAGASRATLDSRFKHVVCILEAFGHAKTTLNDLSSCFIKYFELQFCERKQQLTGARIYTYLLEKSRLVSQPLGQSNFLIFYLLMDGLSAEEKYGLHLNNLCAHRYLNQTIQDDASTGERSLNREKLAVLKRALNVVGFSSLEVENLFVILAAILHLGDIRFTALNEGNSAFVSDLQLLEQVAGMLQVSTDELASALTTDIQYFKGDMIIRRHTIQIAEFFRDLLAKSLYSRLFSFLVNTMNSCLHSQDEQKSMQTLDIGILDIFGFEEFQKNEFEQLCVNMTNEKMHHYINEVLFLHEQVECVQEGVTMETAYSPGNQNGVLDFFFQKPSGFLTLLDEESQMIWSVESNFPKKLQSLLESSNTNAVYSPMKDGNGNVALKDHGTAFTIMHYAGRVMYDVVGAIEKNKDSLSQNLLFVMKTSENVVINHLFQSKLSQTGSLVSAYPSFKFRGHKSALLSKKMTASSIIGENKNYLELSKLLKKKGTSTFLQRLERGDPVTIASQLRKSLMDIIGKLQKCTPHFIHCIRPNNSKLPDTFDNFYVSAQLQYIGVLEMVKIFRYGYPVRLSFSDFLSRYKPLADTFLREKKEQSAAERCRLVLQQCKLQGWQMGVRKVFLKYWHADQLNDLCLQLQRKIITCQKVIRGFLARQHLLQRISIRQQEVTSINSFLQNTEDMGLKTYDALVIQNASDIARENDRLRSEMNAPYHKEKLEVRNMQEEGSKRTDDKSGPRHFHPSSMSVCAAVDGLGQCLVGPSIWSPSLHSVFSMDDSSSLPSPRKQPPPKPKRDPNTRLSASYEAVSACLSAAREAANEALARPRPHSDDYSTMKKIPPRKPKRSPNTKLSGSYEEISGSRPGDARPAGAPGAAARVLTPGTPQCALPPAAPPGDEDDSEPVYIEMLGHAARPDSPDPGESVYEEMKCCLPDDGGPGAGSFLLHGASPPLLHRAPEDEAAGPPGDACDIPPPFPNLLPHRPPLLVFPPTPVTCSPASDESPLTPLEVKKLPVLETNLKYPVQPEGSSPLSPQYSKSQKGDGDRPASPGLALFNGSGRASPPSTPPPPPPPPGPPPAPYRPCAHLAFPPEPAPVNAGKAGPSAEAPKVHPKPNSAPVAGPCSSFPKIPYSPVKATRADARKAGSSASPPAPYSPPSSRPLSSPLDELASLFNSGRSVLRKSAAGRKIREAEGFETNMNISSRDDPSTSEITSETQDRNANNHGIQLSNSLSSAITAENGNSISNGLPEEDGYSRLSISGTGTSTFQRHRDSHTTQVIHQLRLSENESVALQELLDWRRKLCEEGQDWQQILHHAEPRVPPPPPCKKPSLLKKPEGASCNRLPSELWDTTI
UniProt Q9Y546: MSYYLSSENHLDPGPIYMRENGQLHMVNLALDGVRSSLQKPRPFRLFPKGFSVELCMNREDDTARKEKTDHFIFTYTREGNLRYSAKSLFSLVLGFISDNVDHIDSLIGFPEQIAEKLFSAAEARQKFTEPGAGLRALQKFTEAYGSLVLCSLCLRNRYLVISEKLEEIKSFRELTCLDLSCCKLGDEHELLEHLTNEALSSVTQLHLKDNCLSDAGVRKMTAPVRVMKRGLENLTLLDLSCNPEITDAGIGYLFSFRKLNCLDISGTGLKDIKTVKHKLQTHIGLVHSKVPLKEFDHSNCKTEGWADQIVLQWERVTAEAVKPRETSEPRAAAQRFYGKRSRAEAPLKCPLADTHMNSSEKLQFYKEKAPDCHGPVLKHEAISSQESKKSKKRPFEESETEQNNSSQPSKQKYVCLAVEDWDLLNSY
UniProt Q9Y3C8: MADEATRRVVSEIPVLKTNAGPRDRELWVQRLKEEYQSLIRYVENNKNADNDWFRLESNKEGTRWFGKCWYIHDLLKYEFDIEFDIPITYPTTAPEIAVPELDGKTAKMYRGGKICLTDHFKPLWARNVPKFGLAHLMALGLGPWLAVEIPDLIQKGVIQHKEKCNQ
UniProt Q9Y478: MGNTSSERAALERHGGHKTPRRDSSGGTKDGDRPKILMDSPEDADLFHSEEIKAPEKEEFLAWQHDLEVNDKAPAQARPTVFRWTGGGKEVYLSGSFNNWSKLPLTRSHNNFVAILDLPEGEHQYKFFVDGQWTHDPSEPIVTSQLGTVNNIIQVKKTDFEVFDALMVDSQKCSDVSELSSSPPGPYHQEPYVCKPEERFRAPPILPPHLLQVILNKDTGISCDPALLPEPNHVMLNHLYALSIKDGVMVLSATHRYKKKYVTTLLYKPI
UniProt Q9Y4I5: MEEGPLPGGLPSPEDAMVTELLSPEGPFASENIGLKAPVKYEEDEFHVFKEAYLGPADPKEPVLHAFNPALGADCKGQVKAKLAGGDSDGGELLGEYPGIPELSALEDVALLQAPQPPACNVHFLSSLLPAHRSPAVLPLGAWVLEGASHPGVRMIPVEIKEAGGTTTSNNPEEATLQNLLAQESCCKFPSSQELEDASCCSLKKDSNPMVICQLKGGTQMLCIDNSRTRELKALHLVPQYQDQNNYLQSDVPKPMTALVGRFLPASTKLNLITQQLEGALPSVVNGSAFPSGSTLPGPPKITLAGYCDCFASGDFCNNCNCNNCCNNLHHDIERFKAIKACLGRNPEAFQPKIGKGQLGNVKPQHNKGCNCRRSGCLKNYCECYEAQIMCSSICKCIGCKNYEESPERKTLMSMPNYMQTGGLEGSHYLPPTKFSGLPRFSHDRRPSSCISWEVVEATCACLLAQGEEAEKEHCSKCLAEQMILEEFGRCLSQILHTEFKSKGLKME
UniProt Q9Y6H3: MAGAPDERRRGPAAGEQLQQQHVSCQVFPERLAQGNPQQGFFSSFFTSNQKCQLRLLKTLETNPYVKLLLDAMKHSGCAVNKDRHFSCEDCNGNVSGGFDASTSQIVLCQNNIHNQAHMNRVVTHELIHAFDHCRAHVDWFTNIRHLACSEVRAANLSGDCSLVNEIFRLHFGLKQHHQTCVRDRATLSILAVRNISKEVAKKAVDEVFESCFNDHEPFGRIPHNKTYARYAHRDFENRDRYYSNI
UniProt Q9Y3P9: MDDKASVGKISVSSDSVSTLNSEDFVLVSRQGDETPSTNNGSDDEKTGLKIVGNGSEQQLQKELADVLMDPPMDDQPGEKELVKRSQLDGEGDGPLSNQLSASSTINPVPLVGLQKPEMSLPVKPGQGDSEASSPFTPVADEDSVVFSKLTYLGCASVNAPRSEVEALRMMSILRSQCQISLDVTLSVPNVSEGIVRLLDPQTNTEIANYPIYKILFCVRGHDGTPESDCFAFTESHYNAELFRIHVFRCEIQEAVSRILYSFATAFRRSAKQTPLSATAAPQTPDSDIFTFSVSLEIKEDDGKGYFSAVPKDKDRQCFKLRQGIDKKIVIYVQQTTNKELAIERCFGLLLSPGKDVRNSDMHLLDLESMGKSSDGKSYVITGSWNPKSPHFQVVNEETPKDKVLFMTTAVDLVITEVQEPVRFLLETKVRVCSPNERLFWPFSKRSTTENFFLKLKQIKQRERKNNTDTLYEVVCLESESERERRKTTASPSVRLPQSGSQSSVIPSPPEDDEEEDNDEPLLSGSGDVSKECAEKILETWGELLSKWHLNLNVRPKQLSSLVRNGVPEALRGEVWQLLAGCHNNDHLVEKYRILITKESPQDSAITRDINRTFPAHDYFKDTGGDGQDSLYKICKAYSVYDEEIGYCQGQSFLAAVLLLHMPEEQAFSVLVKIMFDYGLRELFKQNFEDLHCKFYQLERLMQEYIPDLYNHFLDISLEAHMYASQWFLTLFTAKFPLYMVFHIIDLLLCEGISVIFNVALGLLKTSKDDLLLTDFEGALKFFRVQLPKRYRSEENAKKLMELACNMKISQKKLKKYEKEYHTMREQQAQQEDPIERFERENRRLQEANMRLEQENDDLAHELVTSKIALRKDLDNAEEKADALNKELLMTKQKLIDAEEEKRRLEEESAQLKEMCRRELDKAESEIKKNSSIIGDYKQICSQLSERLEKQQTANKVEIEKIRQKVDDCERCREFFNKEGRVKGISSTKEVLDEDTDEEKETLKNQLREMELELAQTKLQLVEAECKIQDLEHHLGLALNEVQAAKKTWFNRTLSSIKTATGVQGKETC
UniProt Q9Y5Y0: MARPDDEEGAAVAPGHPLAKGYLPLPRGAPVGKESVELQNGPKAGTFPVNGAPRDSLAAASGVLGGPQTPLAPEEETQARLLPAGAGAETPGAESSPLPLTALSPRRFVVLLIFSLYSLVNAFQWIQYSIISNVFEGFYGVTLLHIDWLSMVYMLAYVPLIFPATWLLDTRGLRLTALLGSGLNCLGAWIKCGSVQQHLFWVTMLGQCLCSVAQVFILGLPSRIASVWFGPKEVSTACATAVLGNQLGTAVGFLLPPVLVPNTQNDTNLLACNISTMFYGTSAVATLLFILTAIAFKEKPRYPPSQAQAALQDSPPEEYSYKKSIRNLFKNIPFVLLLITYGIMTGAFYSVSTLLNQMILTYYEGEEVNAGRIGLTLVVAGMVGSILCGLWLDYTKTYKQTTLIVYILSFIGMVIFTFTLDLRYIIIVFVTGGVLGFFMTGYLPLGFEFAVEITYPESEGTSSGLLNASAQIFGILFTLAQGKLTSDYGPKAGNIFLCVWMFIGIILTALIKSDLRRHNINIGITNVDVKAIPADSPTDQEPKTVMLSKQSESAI

What follows are targets tested with CN[C@@H]1C[C@H]2O[C@@](C)([C@@H]1OC)n1c3ccccc3c3c4c(c5c6ccccc6n2c5c31)C(=O)NC4 [staurosporine] (assay: log2 fold change of tryptic peptide abundance, ligand vs vehicle (limited proteolysis) (log2 ratio); higher = more trypsin-susceptible (destabilized)). Settings: ligand concentration: 20 uM; sample: K562 cleared lysate; digestion: 4 min, 22 C (HT-PELSA RT4min, Orbitrap Astral).

Target | log2 fold change
MAGED1 (peptide sequence: IPFTFWAR, peptide start residue: 730) (UniProt Q9Y5V3) | -0.183
SNX10 (peptide sequence: RFPEEDEEGK, peptide start residue: 155) (UniProt Q9Y5X0) | -0.00947
F11R (peptide sequence: VIYSQPSAR, peptide start residue: 278) (UniProt Q9Y624) | -0.547
MMACHC (peptide sequence: IALLEGFNFHWR, peptide start residue: 190) (UniProt Q9Y4U1) | 0.26
TBL2 (peptide sequence: AMVEEMQGHLK, peptide start residue: 407) (UniProt Q9Y4P3) | 0.246
TEX264 (peptide sequence: WLWEPTAPEK, peptide start residue: 301) (UniProt Q9Y6I9) | 0.443
FKBP7 (peptide sequence: KNDHDGDGFISPK, peptide start residue: 200) (UniProt Q9Y680) | -0.502
TIMM8B (peptide sequence: FIDTTLAITSR, peptide start residue: 63) (UniProt Q9Y5J9) | -0.149
UTP18 (peptide sequence: VAASTFSSDSK, peptide start residue: 385) (UniProt Q9Y5J1) | 0.688
UniProt Q9Y3Y2 (peptide sequence: ASMQQQQQLASAR, peptide start residue: 39) | -0.329
NFS1 (peptide sequence: VEALQSGGGQER, peptide start residue: 278) (UniProt Q9Y697) | -0.313
SUPT16H (peptide sequence: DLGFNGAPYR, peptide start residue: 803) (UniProt Q9Y5B9) | 0.68
UniProt Q9Y3U8 (peptide sequence: REELSNVLAAMR, peptide start residue: 87) | -0.117
GTF3C5 (peptide sequence: DGWCLPK, peptide start residue: 436) (UniProt Q9Y5Q8) | -0.412
HDGFL3 (peptide sequence: DLFPYKEYK, peptide start residue: 61) (UniProt Q9Y3E1) | -0.46
GTF3C3 (peptide sequence: GEREEAILMCMEIIR, peptide start residue: 163) (UniProt Q9Y5Q9) | 0.332
UniProt Q9Y5S9 (peptide sequence: GFGSEEGSR, peptide start residue: 39) | -0.132
UniProt Q9Y6X6 (peptide sequence: LSPLVLPIAK, peptide start residue: 344) | -0.164
IVNS1ABP (peptide sequence: LQVCGHEMLAHR, peptide start residue: 36) (UniProt Q9Y6Y0) | 0.313
MFHAS1 (peptide sequence: STPSQELLR, peptide start residue: 773) (UniProt Q9Y4C4) | -0.084

Another view of part of the listing above:
Target	log2 fold change
TIMM8B (peptide sequence: FIDTTLAITSR, peptide start residue: 63) (UniProt Q9Y5J9)	-0.149
UTP18 (peptide sequence: VAASTFSSDSK, peptide start residue: 385) (UniProt Q9Y5J1)	0.688
UniProt Q9Y3Y2 (peptide sequence: ASMQQQQQLASAR, peptide start residue: 39)	-0.329

More entries

Target | log2 fold change
LRRC42 (peptide sequence: YLVISEKLEEIK, peptide start residue: 159) (UniProt Q9Y546) | 0.666
UFC1 (peptide sequence: GGKICLTDHFKPLWAR, peptide start residue: 112) (UniProt Q9Y3C8) | -0.856
ZNF330 (peptide sequence: GKQPPCPKCGHETQETK, peptide start residue: 208) (UniProt Q9Y3S2) | -0.154
ARIH1 (peptide sequence: YFDGNLEK, peptide start residue: 149) (UniProt Q9Y4X5) | 0.116
WIPI2 (peptide sequence: LFSSSLVAIVSLKAPR, peptide start residue: 82) (UniProt Q9Y4P8) | 0.637
UniProt Q9Y5L2 (peptide sequence: SQLANTEPTK, peptide start residue: 44) | -0.314
USP3 (peptide sequence: KLLENSTLNSK, peptide start residue: 135) (UniProt Q9Y6I4) | -0.237
CPQ (peptide sequence: AIINLAVYGK, peptide start residue: 49) (UniProt Q9Y646) | 0.115
GMEB1 (peptide sequence: AVILETELR, peptide start residue: 539) (UniProt Q9Y692) | -0.0824
PRKAB1 (peptide sequence: KTDFEVFDALMVDSQK, peptide start residue: 157) (UniProt Q9Y478) | 0.206
TESMIN (peptide sequence: EPVLHAFNPALGADCK, peptide start residue: 61) (UniProt Q9Y4I5) | -0.295
UniProt Q9Y6H3 (peptide sequence: RGPAAGEQLQQQHVSCQVFPER, peptide start residue: 10) | -0.352
NOC2L (peptide sequence: QMYITYVR, peptide start residue: 335) (UniProt Q9Y3T9) | -0.21
RABGAP1 (peptide sequence: ELDKAESEIKK, peptide start residue: 919) (UniProt Q9Y3P9) | 1.4
TNPO3 (peptide sequence: HTNPIVENGQTHPCQK, peptide start residue: 621) (UniProt Q9Y5L0) | 0.26
FLVCR1 (peptide sequence: ESVELQNGPK, peptide start residue: 34) (UniProt Q9Y5Y0) | 0.277
CEP170B (peptide sequence: EPSYFEIPTK, peptide start residue: 237) (UniProt Q9Y4F5) | 0.156
RBM7 (peptide sequence: YTDHGSDHHYR, peptide start residue: 219) (UniProt Q9Y580) | -0.302
UniProt Q9Y6X2 (peptide sequence: VSELQVLLGFAGR, peptide start residue: 16) | -0.386
